According to patent US6365711:
These are yes or no findings as the source states them, for the method shown. Some entries that bind do so weakly or less than the wild type. Tags and fused reporters may be left off the sequences shown. One block for each binder: values may come before it.

Protein sequences, listed by entry. Tags and fused reporters are not part of them. Lines headed by an entry give the natural chain unless they say otherwise; changes in a name come on top.
UniProt O70436: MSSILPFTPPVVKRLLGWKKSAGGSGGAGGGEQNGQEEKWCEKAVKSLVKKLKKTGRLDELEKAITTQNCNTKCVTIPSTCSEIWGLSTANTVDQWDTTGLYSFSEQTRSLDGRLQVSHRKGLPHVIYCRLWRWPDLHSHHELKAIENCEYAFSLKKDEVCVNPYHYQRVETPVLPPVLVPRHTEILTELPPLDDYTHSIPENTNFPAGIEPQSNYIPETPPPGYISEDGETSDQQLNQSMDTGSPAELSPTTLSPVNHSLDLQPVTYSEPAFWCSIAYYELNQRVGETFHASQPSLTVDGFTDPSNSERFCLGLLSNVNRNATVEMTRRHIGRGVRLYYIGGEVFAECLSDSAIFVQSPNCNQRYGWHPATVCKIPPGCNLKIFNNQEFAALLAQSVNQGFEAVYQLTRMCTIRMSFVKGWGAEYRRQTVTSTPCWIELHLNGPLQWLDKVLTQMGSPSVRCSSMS

How the values were obtained:
[1] = target: Myc-tagged Smad2 (Xenopus); assay: Myc-tagged FAST-1 deletion mutant co-expressed with tagged Smad and activin in Xenopus embryos (summarised in FIG. 6A)
[2] = target: Xenopus Smad2 MH2 domain (aa248 to aa467) GAL4 activation domain fusion (Xenopus) (UniProt O70436); assay: yeast two-hybrid, X-gal colony lift filter assay (color intensity)
[3] = target: Xenopus Smad2 MH2 domain (aa248 to aa467) GAL4 activation domain fusion (Xenopus) (UniProt O70436); assay: yeast two-hybrid

binding [1]: binds
B1: Myc-tagged Δ1-366 FAST-1 (protein, not shown: small tags and cut ends)
chain: HPIKRSREDDDCSTTSSDPDTGNYSPIEPPKKMPLLSLDLPTSYTKSVAPNVVAPPSVLPFFHFPRFTYYNYGPSPYMTPPYWGFPHPTNSGGDSPRGPQSPLDLDNMLRAMPPNKSVFDVLTSHPGDLVHPSFLSQCLGSSGSPYPSRQGLMYRRRPPGLTWSGHSMK

binding [1]: binds
B2: Myc-tagged Δ506-534 (protein, not shown: small tags and cut ends)
chain: YREGGTWSPDRGSMYGLSPGTHEGSCTHTHEGPKDSMAGDQTRSRKSKKKNYHRYNKPPYSYLAMIALVIQNSPEKRLKLSQILKEVSTLFPFFNGDYMGWKDSIRHNLSSSDCFKKILKDPGKPQAKGNFWTVDVSRIPLDAMKLQNTALTRGGSDYFVQDLAPYILHNYKYEHNAGAYGHQMPPSHARSLSLAEDSQQTNTGGKLNTSFMIDSLLHDLQEVDLPDASRNLENQRISPAVAMNNMWSSAPLLYTHSKPTRNARSPGLSTIHSTYSSSSSSISTISPVGFQKEQEKSGRQTQRVGHPIKRSREDDDCSTTSSDPDTGNYSPIEPPKKMPLLSLDLPTSYTKSVAPNVVAPPSVLPFFHFPRFTYYNYGPSPYMTPPYWGFPHPTNSGGDSPRGPQSPLDLDNMLRAMPPNKSVFDVLTSHPGDLVHPSFLSQCLG

binding [2]: binds
binding [3]: binds
B3: FAST-1 (aa366-518) GAL4 DNA-binding domain fusion (protein, not shown: small tags and cut ends)
chain: HPIKRSREDDDCSTTSSDPDTGNYSPIEPPKKMPLLSLDLPTSYTKSVAPNVVAPPSVLPFFHFPRFTYYNYGPSPYMTPPYWGFPHPTNSGGDSPRGPQSPLDLDNMLRAMPPNKSVFDVLTSHPGDLVHPSFLSQCLGSSGSPYPSRQGLM
